Assay [1] concerns the target Fak (focal adhesion kinase). Put plainly: coexpression in COS cells, anti-HA immunoprecipitation, immunoblot with anti-Fak. In general terms: A western blot detects proteins with antibodies after separation by electrophoresis.
Assay [2] addresses Fak (focal adhesion kinase). Put plainly: coexpression in 293 cells, co-immunoprecipitation.
Assay [3] addresses Fak (focal adhesion kinase). Put plainly: in vitro binding to immobilized GST-fusion protein.

No constants are given. Whether binding was seen depends on the method and setting. For some of these results: Binding seen in cells or lysates may run through a third protein. Sequences can lack the tags named with a protein.

B1: hrdgB2-HA (full length hrdgB2 with C-terminal HA-epitope tag) (protein)
chain: MLIKEYHILLPMSLDEYQVAQLYMIQKKSREESSGEGSGVEILANRPYTDGPGGSGQYTHKVYHVGSHIPGWFRALLPKAALQVEEESWNAYPYTRTRYTCPFVEKFSIEIETYYLPDGGQQPNVFNLSGAERRQRILDTIDIVRDAVAPGEYKAEEDPRLYHSVKTGRGPLSDDWARTAAQTGPLMCAYKLCKVEFRYWGMQAKIEQFIHDVGLRRVMLRAHRQAWCWQDEWTELSMADIRALEEETARMLAQRMAKCNTGSEGSEAQPPGKPSTEARSAASNTGTPDGPEAPPGPDASPDASFGKQWSSSSRSSYSSQHGGAVSPQSLSEWRMQNIARDSENSSEEEFFDAHEGFSDSEEVFPKEMTKWNSNDFIDAFASPVEAEGTPEPGAEAAKGIEDGAQAPRDSEGLDGAGELGAEACAVHALFLILHSGNILDSGPGDANSKQADVQTLSSAFEAVTRIHFPEALGHVALRLVPCPPICAAAYALVSNLSPYSHDGDSLSRSQDHIPLAALPLLATSSSRYQGAVATVIARTNQAYSAFLRSPEGAGFCGQVALIGDGVGGILGFDALCHSANAGTGSRGSSRRGSMNNELLSPEFGPVRDPLADGVEGLGRGSPEPSALPPQRIPSDMASPEPEGSQNSLQAAPATTSSWEPRRASTAFCPPAASSEAPDGPSSTARLDFKVSGFFLFGSPLGLVLALRKTVMPALEAAQMRPACEQIYNLFHAADPCASRLEPLLAPKFQAIAPLTVPRYQKFPLGDGSSLLLADTLQTHSSLFLEELEMLVPSTPTSTSGAFWKGSELATDPPAQPAAPSTTSEVVKILERWWGTKRIDYSLYCPEALTAFPTVTLPHLFHASYWESADVVAFILRQVIEKERPQLAECEEPSIYSPAFPREKWQRKRTQVKIRNVTSNHRASDTVVCEGPPQVLSGRFMYGPLDVVTLTGEKVDVYIMTQPLSGKWIHFGTEVTNSSGRLTFPVPPERALGIGVYPVRMVVRGDHTYAECCLTVVARGTEAVVFSIDGSFTASVSIMGSDPKVRAGAVDVVRHWQDSGYLIVYVTGRPDMQKHRVVAWLSQHNFPHGVVSFCDGLTHDPLRQKAMFLQSLVQEVELNIVAGYGSPKDVAVYAALGLSPSQTYIVGRAVRKLQAQCQFLSDGYVAHLGQLEAGSHSHASSGPPRAALGKSSYGVAAPVDFLRKQSQLLRSRGPSQAEREGPGTPPTTLARGKARSISLKLDSEEYPYDVPDYAS
In the case of B1, in assay [1], the binding entry is reported as “no binding”.

B2: hemagglutinin-tagged rdgB1 (full length hrdgB1 with C-terminal HA-epitope tag) (protein)
chain: MAKAGRAGGPPPGGGAPWHLRNVLSDSVESSDDEFFDAREEMAEGKNAILIGMSQWNSNDLVEQIETMGKLDEHQGEGTAPCTSSILQEKQRELYRVSLRRQRFPAQGSIEIHEDSEEGCPQRSCKTHVLLLVLHGGNILDTGAGDPSCKAADIHTFSSVLEKVTRAHFPAALGHILIKFVPCPAICSEAFSLVSHLNPYSHDEGCLSSSQDHVPLAALPLLAISSPQYQDAVATVIERANQVYREFLKSSDGIGFSGQVCLIGDCVGGLLAFDAICYSAGPSGDSPASSSRKGSISSTQDTPVAVEEDCSLASSKRLSKSNIDISSGLEDEEPKRPLPRKQSDSSTYDCEAITQHHAFLSSIHSSVLKDESETPAAGGPQLPEVSLGRFDFDVSDFFLFGSPLGLVLAMRRTVLPGLDGFQVRPACSQVYSFFHCADPSASRLEPLLEPKFHLVPPVSVPRYQRFPLGDGQSLLLADALHTHSPLFLEGSSRDSPPLLDAPASPPQASRFQRPGRRMSEGSSHSESSESSDSMAPVGASRITAKWWGSKRIDYALYCPDVLTAFPTVALPHLFHASYWESTDVVAFILRQVMRYESVNIKESARLDPAALSPANPREKWLRKRTQVKLRNVTANHRANDVIAAEDGPQVLVGRFMYGPLDMVALTGEKVDILVMAEPSSGRWVHLDTEITNSSGRITYNVPRPRRLGVGVYPVKMVVRGDQTCAMSYLTVLPRGMECVVFSIDGSFAASVSIMGSDPKVRPGAVDVVRHWQDLGYMILYITGRPDMQKQRVVSWLSQHNFPQGMIFFSDGLVHDPLRQKAIFLRNLMQECFIKISAAYGSTKDISVYSVLGLPASQIFIVGRPTKKYQTQCQFLSEGYAAHLAVLEASHRSRPKKNNSRMILRKGSFGLHAQPEFLRKRNHLRRTMSVQQPDPPAANPKPERAQSQPESDKDHERPLPALSWARGPPKFESVPYPYDVPDYAS
Take B2: the binding entry in assay [2] is “no binding”.

B3: GST-fusion protein containing the same portion of hrdgB1 (amino acids 627-936) (protein, not shown: a dimerising Fc or GST)
chain: VKLRNVTANHRANDVIAAEDGPQVLVGRFMYGPLDMVALTGEKVDILVMAEPSSGRWVHLDTEITNSSGRITYNVPRPRRLGVGVYPVKMVVRGDQTCAMSYLTVLPRGMECVVFSIDGSFAASVSIMGSDPKVRPGAVDVVRHWQDLGYMILYITGRPDMQKQRVVSWLSQHNFPQGMIFFSDGLVHDPLRQKAIFLRNLMQECFIKISAAYGSTKDISVYSVLGLPASQIFIVGRPTKKYQTQCQFLSEGYAAHLAVLEASHRSRPKKNNSRMILRKGSFGLHAQPEFLRKRNHLRRTMSVQQPDPPA
B3: in assay [3], the binding entry is on record as “no binding”.

B4: hrdgB3-HA (full length hrdgB3 with C-terminal HA-epitope tag) (protein)
chain: MIIKEYRIPLPMTVEEYRIAQLYMIQKKSRNETYGEGSGVEILENRPYTDGPGGSGQYTHKVYHVGMHIPSWFRSILPKAALRVVEESWNAYPYTRTRFTCPFVEKFSIDIETFYKTDAGENPDVFNLSPVEKNQLTIDFIDIVKDPVPHNEYKTEEDPKLFQSTKTQRGPLSENWIEEYKKQVFPIMCAYKLCKVEFRYWGMQSKIERFIHDTGLRRVMVRAHRQAWCWQDEWYGLSMENIRELEKEAQLMLSRKMAQFNEDGEEATELVKHEAVSDQTSGEPPEPSSSNGEPLVGRGLKKQWSTSSKSSRSSKRGASPSRHSISEWRMQSIARDSDESSDDEFFDAHEDLSDTEEMFPKDITKWSSNDLMDKIESPEPEDTQDGLYRQGAPEFRVASSVEQLNIIEDEVSQPLAAPPSKIHVLLLVLHGGTILDTGAGDPSSKKGDANTIANVFDTVMRVHYPSALGRLAIRLVPCPPVCSDAFALVSNLSPYSHDEGCLSSSQDHIPLAALPLLATSSPQYQEAVATVIQRANLAYGDFIKSQEGMTFNGQVCLIGDCVGGILAFDALCYSNQPVSESQSSSRRGSVVSMQDNDLLSPGILMNAAHCCGGGGGGGGGGGSSGGGGSSGGSSLESSRHLSRSNVDIPRSNGTEDPKRQLPRKRSDSSTYELDTIQQHQAFLSSLHASVLRTEPCSRHSSSSTMLDGTGALGRFDFEITDLFLFGCPLGLVLALRKTVIPALDVFQLRPACQQVYNLFHPADPSASRLEPLLERRFHALPPFSVPRYQRYPLGDGCSTLLADVLQTHNAAFQEHGAPSSPGTAPASRGFRRASEISIASQVSGMAESYTASSIAQKAPDALSHTPSVRRLSLLALPAPSPTTPGPHPPARKASPGLERAPGLPELDIGEVAAKWWGQKRIDYALYCPDALTAFPTVALPHLFHASYWESTDVVSFLLRQVMRHDNSSILELDGKEVSVFTPSKPREKWQRKRTHVKLRNVTANHRINDALANEDGPQVLTGRFMYGPLDMVTLTGEKVDVHIMTQPPSGEWLYLDTLVTNNSGRVSYTIPESHRLGVGVYPIKMVVRGDHTFADSYITVLPKGTEFVVFSIDGSFAASVSIMGSDPKVRAGAVDVVRHWQDLGYLIIYVTGRPDMQKQRVVAWLAQHNFPHGVVSFCDGLVHDPLRHKANFLKLLISELHLRVHAAYGSTKDVAVYSAISLSPMQIYIVGRPTKKLQQQCQFITDGYAAHLAQLKYSHRARPARNTATRMALRKGSFGLPGQGDFLRSRNHLLRTISAQPSGPSHRHERTQSQADGEQRGQRSMSVAAGCWGRAMTGRLEPGAAAGPKYPYDVPDYAS
Take B4: in assay [1], the binding entry is listed as “no binding”.

These data come from patent US6576442.
